Results are given in words; binding and its absence hold for the method and conditions named. Binding seen in cells or lysates may run through a third protein. Some binding calls cover weakened binding; strength is not graded here.
Biological target: ubiquitin-conjugating enzyme E2T (UBE2T) (human (endogenous in AGS)) (UniProt Q9NPD8)
Experiment: co-IP; total protein of AGS cells (RIPA lysis buffer) immunoprecipitated with anti-UBE2T antibody; UBE2T and CHPF detected by western blot

Sequences of proteins named here, by UniProt entry; tags and fusion partners are left off. A change or cut given only in a name is not applied to a line headed by its entry.
UniProt Q9NPD8: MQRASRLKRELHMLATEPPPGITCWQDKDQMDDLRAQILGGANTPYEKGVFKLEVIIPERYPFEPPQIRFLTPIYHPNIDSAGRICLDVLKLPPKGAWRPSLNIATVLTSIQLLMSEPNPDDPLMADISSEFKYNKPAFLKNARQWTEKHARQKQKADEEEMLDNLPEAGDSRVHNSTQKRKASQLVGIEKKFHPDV

binding: binds
B1: Chondroitin polymerizing factor (CHPF) (protein, UniProt Q8IZ52 1-775)
chain: MRASLLLSVLRPAGPVAVGISLGFTLSLLSVTWVEEPCGPGPPQPGDSELPPRGNTNAARRPNSVQPGAEREKPGAGEGAGENWEPRVLPYHPAQPGQAAKKAVRTRYISTELGIRQRLLVAVLTSQTTLPTLGVAVNRTLGHRLERVVFLTGARGRRAPPGMAVVTLGEERPIGHLHLALRHLLEQHGDDFDWFFLVPDTTYTEAHGLARLTGHLSLASAAHLYLGRPQDFIGGEPTPGRYCHGGFGVLLSRMLLQQLRPHLEGCRNDIVSARPDEWLGRCILDATGVGCTGDHEGVHYSHLELSPGEPVQEGDPHFRSALTAHPVRDPVHMYQLHKAFARAELERTYQEIQELQWEIQNTSHLAVDGDQAAAWPVGIPAPSRPASRFEVLRWDYFTEQHAFSCADGSPRCPLRGADRADVADVLGTALEELNRRYHPALRLQKQQLVNGYRRFDPARGMEYTLDLQLEALTPQGGRRPLTRRVQLLRPLSRVEILPVPYVTEASRLTVLLPLAAAERDLAPGFLEAFATAALEPGDAAAALTLLLLYEPRQAQRVAHADVFAPVKAHVAELERRFPGARVPWLSVQTAAPSPLRLMDLLSKKHPLDTLFLLAGPDTVLTPDFLNRCRMHAISGWQAFFPMHFQAFHPAVAPPQGPGPPELGRDTGRFDRQAASEACFYNSDYVAARGRLAAASEQEEELLESLDVYELFLHFSSLHVLRAVEPALLQRYRAQTCSARLSEDLYHRCLQSVLEGLGSRTQLAMLLFEQEQGNST
